In all, about 330,000 compounds went through this assay and about 7,700 (2.3%) were called active. Inconclusive results, whose numbers are uncertain, are shown with a selection of clear calls. Calls follow the shape of the dose curve; as a rule, active = well fitted inhibition curve with a large enough effect; inconclusive = small, poorly fitted or top-dose-only effect, or effect the other way; inactive = flat fitted curve, though single readings scatter. Potencies of inconclusive entries are doubtful fits and often do not repeat.
Assay: qHTS screen for small molecules that inhibit ELG1-dependent DNA repair in human embryonic kidney (HEK293T) cells expressing luciferase-tagged ELG1; also: nearly all actives have a fitted effect of over 55% in size
Details: HEK293T ELG1-luciferase reporter, luminescence, 16 h, DNA damage induced by 5-fluorouridine; activity change, negative = inhibition: at 46.1 µM (top of the series)
In short: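 HEK293T cells expressing luciferase-tagged ELG1 (2,000/well) received 5-Fluorouridine plus compound or DMSO for 16 hr at 37 °C. Luciferase was read by ONE-Glo luminescence after 30 min at room temperature.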
% is scaled to controls: 0 for no effect and ±100 for the full control effect; potency is read from the fitted curve at half-maximal effect.

Row | Structure (SMILES) | Potency | activity change, negative = inhibition
1 | NS(=O)(=O)c1ccc(CCNC(=O)c2cc(-c3cccs3)nc3ccccc23)cc1 | inconclusive: 16.4 µM [inhibitor, partial curve, poor fit] | –
2 | Cc1ccc(C(=O)Nc2cccc(C(F)(F)F)c2)cc1NC(=O)c1[nH]cnc1C(N)=O | inactive | –
3 | COc1ccccc1CN1CCNC(=O)C1CC(=O)NCc1cn(C)nc1C (stereo not given) | inactive | –
4 | CCC(C)c1ccc(O)c(/C=N/O)c1 (stereo not given) | inconclusive: 29.1 µM [activator, single point] | –
5 | CCOC(=O)c1cc(C(=O)NN)c(=O)[nH]c1C | inactive | –
6 | COc1ccc(OCc2cc(C(=O)N3CCCC(CO)C3)no2)c2ccccc12 (stereo not given) | inconclusive: 13 µM [activator, partial curve] | –
7 | COc1ccc(CNC(=O)c2cc(C3CC3)on2)cc1 | inconclusive: 18.4 µM [activator, partial curve] | –
8 | Cc1ccc(/C=C(\C#N)C(=O)NCc2ccco2)o1 | inconclusive: 25.9 µM [activator, single point] | –
9 | CCCOc1ncnc2c1[nH]c1ccc(C)cc12 | inconclusive: 0.461 µM [activator, full curve] | –
10 | O=C(COc1ccc(C(=O)NCCc2ccccc2)cc1)Nc1ccccc1 | inconclusive: 32.6 µM [activator, partial curve, poor fit] | –
11 | Cc1ccc(S(=O)(=O)c2nc(-c3ccc(F)cc3)oc2N2CCOCC2)cc1 | inactive | –
12 | C/C(=N\Nc1ccc(C)c(Cl)c1)c1ccncc1 | inconclusive: 25.9 µM [activator, single point] | –
13 | CCOc1ccc(S(=O)(=O)Nc2ccc3c(c2)n(C)c(=O)n3C)cc1 | inactive | –
14 | Cc1cc2cc(CCNC(=O)c3cccc([N+](=O)[O-])c3)c(=O)[nH]c2cc1C | active: 23.1 µM | –
15 | COc1ccc(NC(=O)Nc2ccc3c(c2)OCO3)c(C)c1 | inconclusive: 14.6 µM [activator, partial curve] | –
16 | Cc1ccc(NC(=S)Nc2ncccc2C)c(C)c1 | inconclusive: 25.9 µM [activator, single point] | –
17 | CCOC(=O)c1cc2nc(Nc3ccc(OC)cc3)sc2s1 | inconclusive: 16.4 µM [activator, partial curve] | –
18 | CSc1cccc(NC(=O)CSc2ccccc2)c1 | inconclusive: 20.6 µM [activator, single point] | –
19 | O=C(Nc1ccc(Cl)cc1)N1CCC(c2nc(-c3ccccc3Cl)no2)CC1 | active: 13 µM | –
20 | C=CCn1c(O)c(N=NC(=O)OC(C)(C)C)c2ccccc21 | inactive | –
21 | COc1cc2ccccc2cc1C(=O)N1CCN(c2ccccn2)CC1 | inactive | –
22 | COc1ccc(-c2cc(C(F)(F)F)nc(-n3cc(Cl)cn3)n2)cc1 | active: 23.1 µM | –
23 | COc1cc(-c2nnn(CC#N)n2)ccc1OCc1ccccc1 | inconclusive: 15.8 µM [activator, single point] | –
24 | Nc1cccc(C#Cc2ccc3c(=O)c4ccccc4oc3c2)c1 | inconclusive: 0.517 µM [activator, full curve] | –
25 | CCCCN1C(=O)/C(=c2\sc3nc(=O)c(-c4ccccc4)nn3c2=O)c2ccccc21 | inactive | –

Row | Structure (SMILES) | Potency | activity change, negative = inhibition
26 | Cc1ccc(NC(=O)c2cc(-c3cccs3)on2)cc1 | inconclusive: 23.1 µM [activator, single point] | –
27 | N#CCCn1c2ccccc2c2nc3ccccc3nc21 | inactive | –
28 | O=C(Nc1ccccc1)N1CCCc2ccccc21 | inactive | –
29 | OC1CCN(c2cc(-c3ccccc3)nc3cc(-c4ccc(F)cc4)nn23)CC1 | active: 13 µM | –
30 | Cc1ccc(C(C)(O)CS(=O)(=O)Cc2ccccc2)cc1 (stereo not given) | – | inconclusive: 4.16% [activator]
31 | COc1ccc(-c2noc(CCC(=O)N3CCN(c4cccc(Cl)c4)CC3)n2)cc1 | inconclusive: 29.1 µM [inhibitor, single point] | –
32 | Cc1cc([N+](=O)[O-])ccc1Nc1nc2ccccc2n2cnnc12 | inconclusive: 23.1 µM [inhibitor, partial curve, poor fit] | –
33 | CC(CC(=O)Nc1ccc(Cl)c(S(=O)(=O)N2CCOCC2)c1)c1ccccc1 (stereo not given) | active: 8.2 µM | –
34 | O=C1CCCC/C1=C\Nc1ccccc1C(=O)O | inactive | –
35 | N#Cc1cc([N+](=O)[O-])ccc1N1CCCC1 | inactive | –
36 | CCOC(=O)C1=CC[C@@H](c2cc(OC)c(OC)c(OC)c2)N(S(=O)(=O)c2ccc(C)cc2)[C@H]1C(=O)OCC | inactive | –
37 | CCOc1ccc(CNC(=O)Cn2c(=O)c3cccn3c3ccccc32)cc1 | inactive | –
38 | COc1ccc(/C=C/C(=O)NC(=S)Nc2ccc(S(N)(=O)=O)cc2)cc1OC | inconclusive: 0.141 µM [activator, partial curve, poor fit] | –
39 | Cc1nnc(SCc2c(Cl)cccc2Cl)s1 | inconclusive: 29.1 µM [activator, single point] | –
40 | CN(C)c1cccc(C(=O)OCC(=O)Nc2ccccc2Cl)c1 | inconclusive: 29.1 µM [inhibitor, single point] | –
41 | COc1ccc(CCN2C(=O)CC(Cc3ccc(Br)cc3)C2=O)cc1OC (stereo not given) | inconclusive: 25.9 µM [inhibitor, partial curve, poor fit] | –
42 | COCCn1c(C)cc(/C=N/NC(=O)c2cccnc2)c1C | inconclusive: 18.3 µM [activator, partial curve] | –
43 | O=C1C=C(c2ccc(-c3ccccc3)c(F)c2)C[C@@H](c2ccc(F)cc2)C1 | inactive | –
44 | O=C(Nc1c(C(=O)Nc2cccc(F)c2)oc2ccccc12)c1ccc2c(c1)OCO2 | inactive | –
45 | COc1ccc(NC(=S)Nc2ccc(N(C)C(C)=O)cc2)cc1 | inactive | –
46 | CN(Cc1cn(-c2ccccc2)nc1-c1cc2ccccc2o1)C(=O)CCC(=O)O | inconclusive: 20.6 µM [activator, single point] | –
47 | COc1ccc(NC(C)=O)cc1NC(=O)CSc1nnc(-c2cccnc2)n1C | inactive | –
48 | O=C(Cc1ccc(-c2ccccc2)cc1)NNC(=S)NCc1ccco1 | inconclusive: 11.6 µM [inhibitor, partial curve, poor fit] | –
49 | COc1ccc(C2=NN(C(=O)c3cccs3)C(c3ccccc3OC)C2)cc1OC (stereo not given) | inconclusive: 23.1 µM [inhibitor, partial curve] | –
50 | Cn1c(=O)c2[nH]c(N3CCN(c4cccc(O)c4)CC3)nc2n(C)c1=O | inconclusive: 23.1 µM [activator, single point] | –

Row | Structure (SMILES) | Potency | activity change, negative = inhibition
51 | O=C(O)c1ccccc1C(=O)c1ccc(N2CCCC2)c([N+](=O)[O-])c1 | inconclusive: 20.6 µM [activator, partial curve] | –
52 | CCCc1nc(SCC(=O)Nc2ccc(N3CCOCC3)cc2)c2ccccc2n1 | inconclusive: 9.2 µM [inhibitor, partial curve, poor fit] | –
53 | NC(=O)c1ccccc1NC(=O)/C=C/C(=O)O | inactive | –
54 | O=C(CCNc1ccc(Cc2ccncc2)cc1)c1ccc([N+](=O)[O-])cc1 | inactive | –
55 | CCOC(=O)CC1C(=O)NCCN1c1nc2ccc(C)cn2c(=O)c1/C=C1\SC(=S)N(CC(C)C)C1=O (stereo not given) | inconclusive: 3.66 µM [inhibitor, full curve] | –
56 | COc1ccccc1C(=O)Nc1nnc(C)s1 | inconclusive: 14.6 µM [activator, partial curve] | –
57 | Cc1ccc(-c2ccc(CO)o2)cc1N | inconclusive: 16.4 µM [activator, single point] | –
58 | O=C(Cn1ccc2ccccc2c1=O)NCCC(=O)N1CCN(c2cccc(C(F)(F)F)c2)CC1 | inconclusive: 23.1 µM [inhibitor, single point] | –
59 | CCN1CCN(C(=O)C(C)Oc2ccc(S(=O)(=O)N3CCCC3)cc2C(N)=O)CC1 (stereo not given) | inconclusive: 11.6 µM [activator, partial curve] | –
60 | COC(=O)c1c(C)c2c(C)cc3ccccn3c-2c1C(=O)OC | inactive | –
61 | O=C(CC(O)CCc1ccccc1)c1ccc(O)cc1 (stereo not given) | inconclusive: 20.6 µM [activator, single point] | –
62 | O=C(NC1CC2CCCC(C1)N2Cc1ccccc1)c1ccc([N+](=O)[O-])cc1 (stereo not given) | inactive | –
63 | c1ccc(-c2[nH]ncc2CN2CCc3ccccc3C2)cc1 | inactive | –
64 | C[C@@H](C(=O)NCc1ccccc1)[C@H]1C[C@]1(C)[C@H](NC(=O)OCc1ccccc1)c1ccccc1 | inconclusive: 18.4 µM [inhibitor, single point] | –
65 | Cc1onc(-c2c(F)cccc2Cl)c1C(=O)NC1CCCCCC1 | inactive | –
66 | COc1cc2nc(N3CCNCC3)nc(N)c2cc1OC | inactive | –
67 | CCCCn1nc2cc(C(=O)NCc3cc(C(F)(F)F)cc(C(F)(F)F)c3)ccc2c1OC | inconclusive: 18.4 µM [inhibitor, single point] | –
68 | Oc1ccccc1C(=S)N1CCN(C(=S)c2ccccc2O)CC1 | inactive | –
69 | O=[N+]([O-])c1ccc(S(=O)(=O)Nc2nc3ccccc3nc2Nc2ccccc2)cc1 | inconclusive: 23.1 µM [inhibitor, partial curve] | –
70 | Cc1ccc(/C=N/NC(=O)c2ccc(-n3cnnn3)cc2)cc1 | inconclusive: 29.1 µM [activator, single point] | –
71 | O=C(NC(=S)NCC1CCCO1)c1ccc(Cl)cc1 (stereo not given) | inconclusive: 16.4 µM [activator, partial curve] | –
72 | Cc1ccc(NS(=O)(=O)c2ccc(C(=O)N3CCCCCCC3)cc2)cc1 | inactive | –
73 | COc1cc([N+](=O)[O-])ccc1NC(=O)CSc1nncn1-c1cccnc1 | inconclusive: 18.3 µM [inhibitor, partial curve, poor fit] | –
74 | N#Cc1nc(COc2ccc(F)cc2)oc1NCCCn1ccnc1 | inactive | –
75 | COc1ccc2c(C(=O)CCl)c[nH]c2c1 | inconclusive: 29.1 µM [inhibitor, single point] | –
